In the test the target is T1, prolyl 3-hydroxylase family member 4 (P3H4) fused with 3 × FLAG tag at the C-terminal (UniProt Q92791).
T1 sequence: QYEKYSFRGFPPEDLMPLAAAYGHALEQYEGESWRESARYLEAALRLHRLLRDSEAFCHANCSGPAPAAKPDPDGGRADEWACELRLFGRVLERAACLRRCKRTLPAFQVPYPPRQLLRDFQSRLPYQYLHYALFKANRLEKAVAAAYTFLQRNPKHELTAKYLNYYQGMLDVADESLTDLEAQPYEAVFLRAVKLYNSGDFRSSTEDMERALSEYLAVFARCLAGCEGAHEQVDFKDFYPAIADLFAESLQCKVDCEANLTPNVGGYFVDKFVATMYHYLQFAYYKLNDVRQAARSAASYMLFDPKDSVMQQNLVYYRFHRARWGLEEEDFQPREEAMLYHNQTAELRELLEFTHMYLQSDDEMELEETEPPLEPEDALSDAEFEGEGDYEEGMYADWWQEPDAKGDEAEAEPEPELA
Put plainly: co-IP; FLAG-beads on RIPA lysates of A549 stable cell lines over-expressing P3H4-3xFLAG (OE) and negative control (NC); candidate partners detected by Western blot. In general terms: A western blot detects proteins with antibodies after separation by electrophoresis.

The results in this text go back to PMC9264976.

These are yes or no findings as the source states them, for the method shown. Binding seen in cells or lysates may run through a third protein. Some results given as binding are weak or reduced against the parent protein; the word gives no strength. Where a sequence is shown, tags or fusion partners need not be part of it.

As for “Epidermal growth factor receptor (EGFR) (from UniProt P00533 25-1210)”, the binding entry is “binds”.
